Results: paper PMC11443414 (RSC Advances, 2024)

Molecular target: T1, urease subunit gamma (UreA) (Staphylococcus aureus, UniProt Q6GEE6)
T1 sequence (Q6GEE6 1-100): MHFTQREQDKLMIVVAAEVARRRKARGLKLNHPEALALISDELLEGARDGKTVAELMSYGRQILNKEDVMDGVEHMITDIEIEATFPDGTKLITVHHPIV
Format: binding

`Nc1ccc(S(N)(=O)=O)cc1` [compound 4, Sulfanilamide] was tested, and the “STD-NMR (individual, group epitope mapping); DSF Tm shift” value was “all the aromatic protons showed interactions with protein in STD difference spectrum”.
